The structures given here were assigned with low confidence; some may be wrong.
Assays:
Assay in all cases: Proliferation of KRAS mutant cells, drug P compounds (Activity Example 6)
[1] = tested on: H727 (G12V)
Procedure: (§1) A sterile 1% methylcellulose 3D culture medium was prepared in advance. Cells in the logarithmic growth phase were harvested, and cell counting and viability assessment were performed using a Countstar automatic cell counter based on the classical trypan blue staining principle, ensuring that cell viability was above 90%. Cell concentrations for GP2D, HPAC, AsPC-1, KP-4, and Panc 04.03 were adjusted to a final methylcellulose (Sigma, 9004-67-5) concentration of 0.65%, mixed, and allowed to stand until no visible air bubbles. 80 µL of cell suspension (1000-2000 cells) was added to a 96-well plate (Corning, 3603). The cells in the 96-well plate were cultured overnight at 37 °C, 5% CO2, and 95% humidity (Thermo Scientific, Model 371 Series).
(§2) Preparation of drug for IC50 assay: 10 mM DMSO stock solutions of each compound were prepared. First dilution in DMSO to 5 mM, then 3-fold serial dilution to 9 concentrations to prepare DMSO solutions of different concentrations for each compound. Second 1:100 dilution (phosphate-buffered saline DPBS, Corning, 21-031-CVC) was used to prepare a 5x dilution of each compound, using complete medium as solvent. Finally, 20 µL of each compound dilution was added per well to the cell-seeded plates, with a final top concentration of 10 µM, 9 concentrations, 3-fold dilution, two replicate wells per drug concentration.
(§3) The treated plates were incubated at 37 °C, 5% CO2 for 120 hours, followed by CTG analysis (CellTiter-Glo® Luminescent Cell Viability Assay, Promega, Cat# G7573). CTG reagent was thawed, and cell plates were equilibrated to room temperature for 30 minutes. 75 µL of CTG solution was added per well. Plates were shaken on an orbital shaker for 5 minutes to lyse cells, then placed at room temperature for 20 minutes to stabilize the luminescent signal. Luminescence was read (EnVision Multimode Plate Reader, PerkinElmer #2105). Data were analyzed using GraphPad Prism 9.0 software, and dose-response curves were fitted by nonlinear S-curve regression to calculate IC50 values (nM). Cell viability (%) = (Lumtest drug−Lummedium control)/(Lumvehicle control−Lummedium control) × 100% [formula]
(§4) Following essentially the same experimental method and procedure as Activity Example 5, the inhibitory effect of representative drug P unit compounds of ADC of the present disclosure on proliferation of KRAS mutant cells was tested in cell lines H358, H727, A549, GP2D, MKN1 (purchased from Nanjing Kebai Biotechnology Co., Ltd.) and cell lines A375 and HCT116 (purchased from Cell Bank of the Chinese Academy of Sciences): […]

[2] = tested on: H358 (G12C)
Procedure: as §1, §2, §3, §4

[3] = tested on: MKN1 (WT, amp)
Procedure: as §1, §2, §3, §4

[4] = tested on: A375 (WT)
Procedure: as §1, §2, §3, §4

[5] = tested on: GP2D (G12D)
Procedure: as §1, §2, §3, §4

[6] = tested on: A549 (G12S)
Procedure: as §1, §2, §3, §4

[7] = tested on: HCT116 (G13D)
Procedure: as §1, §2, §3, §4

Work on `CCN1CC/C(=C\F)[C@](C)(COc2nc(N3Cc4c(COC)c(C(=O)N(C)C)nn4CC[C@@H]3C)c3cc(C(F)(F)F)c(-c4c(F)ccc5sc(N)c(C#N)c45)c(F)c3n2)C1` yielded an IC50 [1] of under 5 nM, an IC50 [2] of under 5 nM and an IC50 [3] of under 5 nM. It also gave an IC50 [4] of over 100 nM, an IC50 [5] of under 5 nM and an IC50 [6] of over 100 nM. The IC50 [7] was 5 to 100 nM.
